The results in this text go back to the supplement of paper PMC12819154, “High-throughput peptide-centric local stability assay extends protein–ligand identification to membrane proteins, tissues and bacteria” (Nature Structural & Molecular Biology, 2025).

The chains behind the UniProt entries cited, without tags or fusion partners. Where a name states a change or a piece, a line headed by the entry shows the natural chain unless it says otherwise.
UniProt Q8VCN6: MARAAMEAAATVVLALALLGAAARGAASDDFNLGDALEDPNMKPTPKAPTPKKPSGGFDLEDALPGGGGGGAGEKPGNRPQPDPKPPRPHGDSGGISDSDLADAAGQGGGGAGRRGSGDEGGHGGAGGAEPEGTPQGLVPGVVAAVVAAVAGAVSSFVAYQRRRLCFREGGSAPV
UniProt Q91XD7: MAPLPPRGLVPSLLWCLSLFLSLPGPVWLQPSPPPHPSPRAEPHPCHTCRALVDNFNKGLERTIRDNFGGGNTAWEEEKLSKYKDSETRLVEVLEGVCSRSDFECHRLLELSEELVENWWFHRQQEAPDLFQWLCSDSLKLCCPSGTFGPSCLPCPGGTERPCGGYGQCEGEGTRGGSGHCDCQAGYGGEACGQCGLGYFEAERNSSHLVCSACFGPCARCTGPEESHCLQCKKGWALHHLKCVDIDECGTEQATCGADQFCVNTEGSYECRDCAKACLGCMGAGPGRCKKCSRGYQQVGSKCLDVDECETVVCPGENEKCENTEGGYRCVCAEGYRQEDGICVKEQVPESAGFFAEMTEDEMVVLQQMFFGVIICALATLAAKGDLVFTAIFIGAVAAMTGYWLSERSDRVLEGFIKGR
UniProt Q8VCN9: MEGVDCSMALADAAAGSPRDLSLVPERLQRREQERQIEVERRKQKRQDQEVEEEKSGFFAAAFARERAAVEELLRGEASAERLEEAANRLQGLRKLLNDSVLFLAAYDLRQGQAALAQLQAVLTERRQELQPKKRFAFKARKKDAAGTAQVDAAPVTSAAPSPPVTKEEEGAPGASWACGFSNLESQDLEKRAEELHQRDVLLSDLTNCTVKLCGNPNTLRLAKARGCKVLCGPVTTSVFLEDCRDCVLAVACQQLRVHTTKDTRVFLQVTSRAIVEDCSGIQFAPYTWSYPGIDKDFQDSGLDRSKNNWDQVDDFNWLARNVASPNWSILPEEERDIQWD
UniProt Q91VM9: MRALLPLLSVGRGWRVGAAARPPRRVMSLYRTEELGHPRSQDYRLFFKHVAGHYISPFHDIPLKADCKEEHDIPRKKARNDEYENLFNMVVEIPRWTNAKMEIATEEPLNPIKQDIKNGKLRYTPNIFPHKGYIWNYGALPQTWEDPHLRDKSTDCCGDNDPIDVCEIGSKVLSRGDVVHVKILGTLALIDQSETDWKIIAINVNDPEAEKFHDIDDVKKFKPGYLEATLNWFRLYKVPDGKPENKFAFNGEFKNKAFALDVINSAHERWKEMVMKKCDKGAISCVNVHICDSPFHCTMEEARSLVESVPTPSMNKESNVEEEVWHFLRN
UniProt Q8VEH6: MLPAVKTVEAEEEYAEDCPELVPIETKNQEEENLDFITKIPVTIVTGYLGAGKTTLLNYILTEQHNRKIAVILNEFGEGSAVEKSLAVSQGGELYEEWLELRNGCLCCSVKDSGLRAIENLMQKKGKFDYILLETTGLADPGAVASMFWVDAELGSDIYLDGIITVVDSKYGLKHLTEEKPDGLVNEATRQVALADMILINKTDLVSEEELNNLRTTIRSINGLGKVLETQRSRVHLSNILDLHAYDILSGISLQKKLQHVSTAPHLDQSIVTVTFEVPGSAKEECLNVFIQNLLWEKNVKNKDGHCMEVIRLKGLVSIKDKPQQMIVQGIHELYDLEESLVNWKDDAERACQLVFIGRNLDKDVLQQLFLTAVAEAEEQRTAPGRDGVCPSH
UniProt Q91YY4: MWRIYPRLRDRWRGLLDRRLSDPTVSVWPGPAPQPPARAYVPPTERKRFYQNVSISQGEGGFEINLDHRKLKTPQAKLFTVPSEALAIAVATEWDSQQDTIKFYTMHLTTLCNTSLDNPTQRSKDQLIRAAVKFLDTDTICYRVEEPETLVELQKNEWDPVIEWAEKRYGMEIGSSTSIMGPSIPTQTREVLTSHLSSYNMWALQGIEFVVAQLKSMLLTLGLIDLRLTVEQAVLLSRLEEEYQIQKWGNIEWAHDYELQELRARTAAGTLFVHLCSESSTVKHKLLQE
UniProt Q91WE4: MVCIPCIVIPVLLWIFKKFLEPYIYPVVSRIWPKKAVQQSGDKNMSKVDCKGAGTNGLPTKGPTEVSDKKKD
UniProt Q91VA6: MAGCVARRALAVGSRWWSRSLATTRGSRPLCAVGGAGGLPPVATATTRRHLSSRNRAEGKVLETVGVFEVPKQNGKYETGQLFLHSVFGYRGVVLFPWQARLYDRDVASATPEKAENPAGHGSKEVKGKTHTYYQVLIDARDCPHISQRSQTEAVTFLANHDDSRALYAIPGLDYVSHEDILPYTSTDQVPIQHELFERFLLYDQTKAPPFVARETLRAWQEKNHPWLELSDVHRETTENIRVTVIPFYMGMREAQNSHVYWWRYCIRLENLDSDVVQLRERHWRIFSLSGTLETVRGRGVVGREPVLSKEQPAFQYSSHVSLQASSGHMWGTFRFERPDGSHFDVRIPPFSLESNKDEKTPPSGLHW
UniProt Q91X44: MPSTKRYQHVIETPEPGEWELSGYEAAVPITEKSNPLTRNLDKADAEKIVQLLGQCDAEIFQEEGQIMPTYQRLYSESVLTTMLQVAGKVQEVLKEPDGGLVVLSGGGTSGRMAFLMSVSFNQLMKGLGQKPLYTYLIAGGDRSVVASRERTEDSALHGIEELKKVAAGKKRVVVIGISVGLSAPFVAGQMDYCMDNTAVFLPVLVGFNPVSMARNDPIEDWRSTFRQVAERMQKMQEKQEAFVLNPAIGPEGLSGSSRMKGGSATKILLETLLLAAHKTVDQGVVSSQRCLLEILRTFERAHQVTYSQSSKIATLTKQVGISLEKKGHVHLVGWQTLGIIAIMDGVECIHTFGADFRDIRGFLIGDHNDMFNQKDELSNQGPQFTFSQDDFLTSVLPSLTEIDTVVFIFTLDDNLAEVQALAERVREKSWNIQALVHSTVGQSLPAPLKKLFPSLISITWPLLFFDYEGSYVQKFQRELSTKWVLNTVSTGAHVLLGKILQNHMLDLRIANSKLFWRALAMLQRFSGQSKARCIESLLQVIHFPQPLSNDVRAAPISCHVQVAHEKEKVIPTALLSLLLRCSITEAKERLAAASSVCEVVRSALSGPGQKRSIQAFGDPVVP
UniProt Q8VCR3: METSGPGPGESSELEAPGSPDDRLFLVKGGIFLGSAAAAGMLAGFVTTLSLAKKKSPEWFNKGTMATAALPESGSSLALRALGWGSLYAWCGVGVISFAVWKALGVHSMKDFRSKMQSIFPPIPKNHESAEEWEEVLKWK
UniProt Q8VD04: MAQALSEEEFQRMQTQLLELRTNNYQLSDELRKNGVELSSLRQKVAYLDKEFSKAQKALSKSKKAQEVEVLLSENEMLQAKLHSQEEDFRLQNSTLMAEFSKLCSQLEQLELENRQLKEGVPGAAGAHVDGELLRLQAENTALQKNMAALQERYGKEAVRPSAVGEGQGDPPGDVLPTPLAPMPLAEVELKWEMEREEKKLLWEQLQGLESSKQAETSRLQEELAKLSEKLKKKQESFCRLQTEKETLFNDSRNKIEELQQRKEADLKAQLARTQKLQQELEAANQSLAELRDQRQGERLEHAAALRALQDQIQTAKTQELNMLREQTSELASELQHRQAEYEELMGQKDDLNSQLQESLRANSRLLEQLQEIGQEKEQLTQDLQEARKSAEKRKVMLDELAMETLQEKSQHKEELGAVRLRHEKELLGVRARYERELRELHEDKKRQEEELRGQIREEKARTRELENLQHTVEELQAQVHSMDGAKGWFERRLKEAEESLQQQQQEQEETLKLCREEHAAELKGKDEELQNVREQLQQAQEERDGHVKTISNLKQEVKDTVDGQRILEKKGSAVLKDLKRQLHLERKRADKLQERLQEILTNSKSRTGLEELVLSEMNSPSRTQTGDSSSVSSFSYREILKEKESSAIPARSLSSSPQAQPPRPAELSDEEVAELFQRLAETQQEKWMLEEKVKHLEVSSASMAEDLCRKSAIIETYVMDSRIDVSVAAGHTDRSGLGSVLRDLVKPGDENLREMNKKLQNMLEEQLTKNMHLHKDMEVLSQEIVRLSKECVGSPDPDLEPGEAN
UniProt Q91ZJ5: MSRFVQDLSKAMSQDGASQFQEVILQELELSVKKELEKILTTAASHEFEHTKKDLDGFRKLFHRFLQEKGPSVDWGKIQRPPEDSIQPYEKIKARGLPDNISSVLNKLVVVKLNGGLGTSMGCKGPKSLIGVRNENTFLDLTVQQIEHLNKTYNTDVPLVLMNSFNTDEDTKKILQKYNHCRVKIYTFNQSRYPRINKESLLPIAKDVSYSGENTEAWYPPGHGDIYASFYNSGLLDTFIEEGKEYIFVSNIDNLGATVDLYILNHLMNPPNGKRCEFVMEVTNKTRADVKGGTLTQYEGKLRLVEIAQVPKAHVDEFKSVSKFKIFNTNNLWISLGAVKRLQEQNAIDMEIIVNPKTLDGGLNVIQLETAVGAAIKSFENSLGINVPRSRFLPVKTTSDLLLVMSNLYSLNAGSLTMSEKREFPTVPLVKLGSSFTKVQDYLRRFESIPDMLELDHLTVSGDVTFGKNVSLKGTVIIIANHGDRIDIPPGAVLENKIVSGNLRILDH
UniProt Q91X52: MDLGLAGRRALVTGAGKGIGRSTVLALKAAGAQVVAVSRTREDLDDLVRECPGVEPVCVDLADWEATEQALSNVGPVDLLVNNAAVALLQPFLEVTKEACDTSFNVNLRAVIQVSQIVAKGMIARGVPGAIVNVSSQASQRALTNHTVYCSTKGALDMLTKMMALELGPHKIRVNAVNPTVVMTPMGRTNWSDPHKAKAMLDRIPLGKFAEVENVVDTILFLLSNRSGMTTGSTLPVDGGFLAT
UniProt Q8VDJ3: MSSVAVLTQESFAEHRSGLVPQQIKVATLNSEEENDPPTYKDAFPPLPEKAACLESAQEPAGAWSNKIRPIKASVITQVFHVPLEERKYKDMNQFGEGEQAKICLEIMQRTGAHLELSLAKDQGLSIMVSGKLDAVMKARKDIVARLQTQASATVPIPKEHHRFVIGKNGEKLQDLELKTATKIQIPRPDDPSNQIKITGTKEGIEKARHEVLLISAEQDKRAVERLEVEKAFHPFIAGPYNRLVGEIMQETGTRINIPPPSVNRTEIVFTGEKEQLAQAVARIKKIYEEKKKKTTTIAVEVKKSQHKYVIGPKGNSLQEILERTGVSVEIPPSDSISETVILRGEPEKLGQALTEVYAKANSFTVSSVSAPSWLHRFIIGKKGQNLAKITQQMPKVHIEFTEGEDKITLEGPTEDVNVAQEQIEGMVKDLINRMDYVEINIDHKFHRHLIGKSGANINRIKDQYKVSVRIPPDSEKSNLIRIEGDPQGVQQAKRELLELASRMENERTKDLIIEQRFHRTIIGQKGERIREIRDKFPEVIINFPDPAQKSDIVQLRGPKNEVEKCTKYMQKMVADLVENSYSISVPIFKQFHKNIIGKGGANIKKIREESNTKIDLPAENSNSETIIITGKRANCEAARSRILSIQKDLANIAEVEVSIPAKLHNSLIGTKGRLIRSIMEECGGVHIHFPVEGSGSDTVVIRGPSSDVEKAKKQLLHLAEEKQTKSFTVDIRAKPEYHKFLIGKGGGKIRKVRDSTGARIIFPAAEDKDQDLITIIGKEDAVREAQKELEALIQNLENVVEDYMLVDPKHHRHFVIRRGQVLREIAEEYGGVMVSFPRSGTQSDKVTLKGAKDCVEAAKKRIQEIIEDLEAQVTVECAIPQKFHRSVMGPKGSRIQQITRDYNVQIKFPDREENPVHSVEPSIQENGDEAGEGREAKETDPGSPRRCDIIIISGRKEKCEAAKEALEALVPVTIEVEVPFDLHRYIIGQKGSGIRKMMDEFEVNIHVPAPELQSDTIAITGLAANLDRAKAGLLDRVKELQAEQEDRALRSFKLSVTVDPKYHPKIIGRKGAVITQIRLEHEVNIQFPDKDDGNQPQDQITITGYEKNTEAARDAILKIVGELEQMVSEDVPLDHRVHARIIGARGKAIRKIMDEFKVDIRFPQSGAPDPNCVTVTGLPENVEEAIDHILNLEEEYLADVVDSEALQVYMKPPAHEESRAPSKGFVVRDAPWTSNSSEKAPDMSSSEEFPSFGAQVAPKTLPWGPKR
UniProt Q921T2: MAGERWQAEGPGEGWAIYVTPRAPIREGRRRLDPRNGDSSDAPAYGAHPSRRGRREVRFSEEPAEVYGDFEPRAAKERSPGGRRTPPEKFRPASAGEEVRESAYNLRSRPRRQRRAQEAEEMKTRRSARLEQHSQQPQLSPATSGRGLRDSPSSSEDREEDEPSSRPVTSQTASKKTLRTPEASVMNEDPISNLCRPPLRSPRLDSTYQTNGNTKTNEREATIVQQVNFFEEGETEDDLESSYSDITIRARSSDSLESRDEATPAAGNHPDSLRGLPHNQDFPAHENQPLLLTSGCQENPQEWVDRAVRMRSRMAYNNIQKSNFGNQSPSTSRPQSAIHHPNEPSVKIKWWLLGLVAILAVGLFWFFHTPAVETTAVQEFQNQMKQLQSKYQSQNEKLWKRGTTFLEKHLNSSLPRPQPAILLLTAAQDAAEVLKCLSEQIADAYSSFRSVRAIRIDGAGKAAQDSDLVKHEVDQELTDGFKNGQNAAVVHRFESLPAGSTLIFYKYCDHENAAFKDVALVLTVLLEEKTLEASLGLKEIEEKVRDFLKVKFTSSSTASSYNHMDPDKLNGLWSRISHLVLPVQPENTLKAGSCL

Some of the results follow. Small differences around the control level are noise.

Compound in this experiment: CN[C@@H]1C[C@H]2O[C@@](C)([C@@H]1OC)n1c3ccccc3c3c4c(c5c6ccccc6n2c5c31)C(=O)NC4 [staurosporine]
As to the kind of experiment: log2 fold change of pooled soluble protein (PISA), ligand vs vehicle (log2 ratio); higher = more thermally stabilized. As to conditions: ligand concentration: 20 uM; assay format: PISA pool 52.9/55.5/58.6 C.
For the target UniProt Q8VEE0, the “log2 fold change of pooled soluble protein” value (shortened to “log2 fold change”) was -0.153.

As for UniProt Q8VCN6, the “log2 fold change” value was found to be 0.0379.

In the case of UniProt Q91XD7, the “log2 fold change” value was -0.00598.

In the case of UniProt Q8VCN9, the “log2 fold change” value is -0.229.

Turning to UniProt Q8VCQ3, the “log2 fold change” value is -0.00951.

Regarding UniProt Q91ZM2, the “log2 fold change” value is -0.307.

With UniProt Q91V36, the “log2 fold change” value worked out at 0.0473.

UniProt Q91Z67: the “log2 fold change” value is -0.129.

As for UniProt Q8VCT4, the “log2 fold change” value is 0.0152.

As for UniProt Q93092, the “log2 fold change” value was -0.0627.

UniProt Q91VM9: the “log2 fold change” value was 0.0328.

For UniProt Q920A7, the “log2 fold change” value is -0.00729.

Take UniProt Q922Q8: the “log2 fold change” value was -0.0151.

In the case of UniProt Q925B0, the “log2 fold change” value worked out at 0.515.

As to UniProt Q8VEH6, the “log2 fold change” value is -0.275.

For the target UniProt Q91YY4, the “log2 fold change” value is -0.00211.

Take UniProt Q91WE4: the “log2 fold change” value is -0.043.

Turning to UniProt Q91WQ3, the “log2 fold change” value was -0.0228.

In the case of UniProt Q8WTY4, the “log2 fold change” value came to 0.141.

Take UniProt Q91VU6: the “log2 fold change” value was determined as 0.000634.

For UniProt Q921W0, the “log2 fold change” value is -0.184.

As for UniProt Q91VA6, the “log2 fold change” value amounted to 0.0718.

Turning to UniProt Q8VCW8, the “log2 fold change” value was -0.101.

In the case of UniProt Q91VU1, the “log2 fold change” value turned out to be 0.0966.

For UniProt Q91X44, the “log2 fold change” value stood at 0.0922.

On to UniProt Q8VCR3, for which the “log2 fold change” value was determined as 0.095.

As to UniProt Q8VD04, the “log2 fold change” value was -0.12.

Turning to UniProt Q8VDK1, the “log2 fold change” value came out at 0.0105.

Consider UniProt Q8VDI7, for which the “log2 fold change” value is 0.124.

As to UniProt Q922D4, the “log2 fold change” value was 0.111.

UniProt Q91X72: the “log2 fold change” value worked out at 0.0562.

For the target UniProt Q922B1, the “log2 fold change” value came out at 0.116.

Take UniProt Q91ZJ5: the “log2 fold change” value was found to be 0.0134.

For UniProt Q8VCX1, the “log2 fold change” value turned out to be 0.0962.

With UniProt Q91X52, the “log2 fold change” value is -0.258.

Turning to UniProt Q8VDJ3, the “log2 fold change” value is -0.0571.

For UniProt Q921T2, the “log2 fold change” value is 0.0119.
